Data as given in PubChem BioAssay AID1259279 (Sanger Institute, 2017).
Screen: 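Kinases that colorectal cancer cells need to survive, alone or with drugs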 (primary screen). Cells: LS180 human colorectal cancer cells. Knock-down reagent: siRNA pool against human genes. Treatment: anchor drug BYL719 at 1 µM, cetuximab at 5 µg/ml or trametinib at 10 nM, or DMSO vehicle only. Read-out: 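Cell viability versus a non-targeting pool, as a fraction and as a robust z-score from replicate means, plus a synergy score for each of three drugs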. Scale: viability z-score, no drug: higher = more viable cells after knock-down; viability, no drug: higher = more viable cells; synergy score with BYL719 and synergy score with cetuximab and synergy score with trametinib: higher = stronger synthetic lethal synergy with drug. Call rule: 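Essential (active) calls need a no-drug viability z-score lower than -3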. Calls: active = essential (knock-down alone cuts viability); inactive = no change without drug.
The whole screen tested 794 reagents; this is a random part of them. 11 of all reagents (1.4%) were called active. 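Calls reflect knock-down alone in the vehicle arm, not drug synergy.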 Viability is capped at 1. Not stated in the record: the amount of reagent, the time to read-out.

The first 3 entries, to show the layout:
target,"viability z-score, no drug","viability, no drug (fraction)",synergy score with BYL719,synergy score with cetuximab,synergy score with trametinib,activity call
IDH2,0.568,0.968,-0.0703,-0.192,-0.0814,inactive
RIOK2,0.364,0.946,-0.023,-0.0064,-0.123,inactive
SRC,0.163,0.924,-0.127,-0.144,0.0276,inactive

Main list, repeating the preview:
target,"viability z-score, no drug","viability, no drug (fraction)",synergy score with BYL719,synergy score with cetuximab,synergy score with trametinib,activity call
IDH2,0.568,0.968,-0.0703,-0.192,-0.0814,inactive
RIOK2,0.364,0.946,-0.023,-0.0064,-0.123,inactive
SRC,0.163,0.924,-0.127,-0.144,0.0276,inactive
DUSP21,0.218,0.93,-0.0479,-0.0272,0.155,inactive
NME3,-1.35,0.759,-0.126,-0.123,-0.205,inactive
UCK1,-0.161,0.889,-0.0682,-0.00533,-0.0525,inactive
CALM3,-0.685,0.832,0.0143,-0.0365,-0.0867,inactive
CILK1,0.256,0.934,-0.0243,-0.0165,-0.115,inactive
TCF12,-0.27,0.877,-0.172,-0.207,-0.103,inactive
CNOT1,0.314,0.94,0.122,0.127,0.226,inactive
SIK2,0.0153,0.908,-0.076,-0.0621,-0.0408,inactive
EPHA7,0.222,0.93,0.042,-0.0258,-0.0274,inactive
ACVR2B,-1.21,0.774,-0.123,-0.159,0.0239,inactive
PRKG1,0.86,1,-0.103,-0.147,-0.119,inactive
STK39,-0.731,0.827,0.00442,0.00258,0.0627,inactive
MAST1,-0.0932,0.896,-0.222,-0.0225,-0.111,inactive
ELF3,-0.938,0.804,-0.119,-0.19,0.017,inactive
TAOK1,0.86,1,-0.00742,-0.0786,0.119,inactive
NR2F2,-0.918,0.806,0.0022,-0.0686,0.0519,inactive
KRAS,-3.61,0.512,-0.106,-0.106,-0.0283,active
ERBB2,0.86,1,-0.198,-0.166,-0.0316,inactive
PIK3C2A,-2.94,0.586,-0.158,-0.0483,-0.0271,inactive
NEK3,-0.251,0.879,-0.097,-0.0289,-0.2,inactive
PIK3R1,0.86,1,-0.185,-0.0901,-0.0207,inactive
SMAD2,0.86,1,0.0139,-0.0448,-0.123,inactive
MAP3K6,-0.411,0.861,-0.12,-0.0617,-0.0764,inactive
CLK3,-0.481,0.854,-0.114,-0.0787,-0.102,inactive
MED24,0.86,1,-0.172,-0.166,-0.118,inactive
ACVR1,-2.39,0.645,-0.156,-0.112,-0.13,inactive
CASK,-0.854,0.813,-0.0562,-0.202,0.000449,inactive
RYK,0.86,1,-0.155,-0.089,-0.097,inactive
RBM10,-2.37,0.647,-0.0888,0.0122,-0.108,inactive
DSTYK,0.86,1,-0.0846,-0.166,-0.00988,inactive
EPHB1,0.84,0.998,0.0311,-0.0426,0.1,inactive
